Assay results: US8258114B2, “Modulation of glucose-6-phosphatase translocase expression” (Isis Pharmaceuticals, Inc., priority 2004, dated 2012)
For at least one compound, name, drawing or mass did not settle the structure.

Assays:
[1] = test system: rat glucose-6-phosphatase translocase mRNA; experiment: Reduction of glucose-6-phosphatase translocase mRNA in liver or kidney of ZDF rats (Table 15); format: in vivo
Procedure: Saline-injected animals served as a control treatment group. At the end of the treatment period, animals were sacrificed and target reduction in liver and kidney were measured by real-time PCR as described in other examples herein. […] For example, the following primer-probe set was designed to hybridize to rat glucose-6-phosphatase translocase sequences cited in Table 1: Forward primer: [NT] (incorporated herein as SEQ ID NO: 339) Reverse primer: [NT] (incorporated herein as SEQ ID NO: 340) PCR probe: […] (incorporated herein as SEQ ID NO: 341), where FAM is the fluorescent dye and TAMRA is the quencher dye.

aged Zucker fa/fa rats = experiment: Plasma glucose levels of ZDF rats, alone or in combination with rosiglitazone (Table 16); format: in vivo, rat
Procedure: Saline-injected animals served as a control treatment group.
Plasma glucose levels were evaluated at the beginning of the study (Wk 0), during the first week of treatment (Wk 1), during the third week of treatment (Wk 3), and during the fifth week of treatment (Wk 5).

In the case of `CN(CCOc1ccc(CC2SC(=O)NC2=O)cc1)c1ccccn1` (centres unmarked) [Rosiglitazone, rosiglitazone, reference compound], the “glucose-6-phosphatase translocase levels in liver and kidney (in words)” value [1] is reported as “caused reductions in glucose-6-phosphatase translocase levels in liver” and the “plasma glucose over the course of the study (in words)” value (aged Zucker fa/fa rats) is reported as “caused reductions in plasma glucose”.
